# Values from PubChem BioAssay AID1224830 (NIAID, 2016)
# Assay: 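Regulators of TLR4 signalling towards TNF-alpha in macrophage-like cells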 (primary screen)
# System: human THP-1 monocytic leukaemia cells, TNF dual-luciferase reporter clone, PMA-differentiated to macrophage-like cells
# Reagents: siRNA pool against human genes, 50 nM
# Duration: LPS for 4 h, given about 3 days after siRNA transfection
# Challenge: bacterial LPS (TLR4 ligand), 10 ng/ml
# Detection: 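Ratio of firefly to renilla light, scaled to the plate median and expressed as a robust z-score per replicate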
# Reading the numbers: TNF reporter robust z-score: higher = stronger TNF reporter response to LPS
# Call rule: 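Each well counts as active if its z-score is over 2.8 or under -1.5; controls are left without a call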
# Shown is a random part of about 18,000 deposited reagents. Of all reagents, about 2,900 (16%) got an active call. 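Calls are made per well; low scores hint the gene aids the LPS response, high scores that it dampens it.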 The numbers tell different reagents against one gene apart. Repeated entries: four replicate wells of each siRNA pool.
gene,reagent,TNF reporter robust z-score,activity call
ASCC1,1,-1.07,inactive
ASCC1,1,-0.81,inactive
ASCC1,1,-1.51,active
ASCC1,1,-1.89,active
CUL1,1,-0.9,inactive
CUL1,1,0.11,inactive
CUL1,1,-0.38,inactive
CUL1,1,-0.08,inactive
ARHGAP27,1,-0.46,inactive
ARHGAP27,1,0.04,inactive
ARHGAP27,1,-0.17,inactive
ARHGAP27,1,0.76,inactive
ARHGAP27,2,-0.66,inactive
ARHGAP27,2,0.13,inactive
ARHGAP27,2,-1.03,inactive
ARHGAP27,2,-0.23,inactive
ODF1,1,-0.56,inactive
ODF1,1,-0.52,inactive
ODF1,1,-0.78,inactive
ODF1,1,0.01,inactive
NOTCH1,1,-0.58,inactive
NOTCH1,1,-1.37,inactive
NOTCH1,1,0.94,inactive
NOTCH1,1,0.11,inactive
TMC5,1,1.31,inactive
TMC5,1,0.09,inactive
TMC5,1,0.66,inactive
TMC5,1,0.1,inactive
EMX2,1,-0.14,inactive
EMX2,1,1.19,inactive
EMX2,1,1.52,inactive
EMX2,1,1.8,inactive
PEDS1-UBE2V1,1,0.84,inactive
PEDS1-UBE2V1,1,3.12,active
PEDS1-UBE2V1,1,2.42,inactive
PEDS1-UBE2V1,1,0.78,inactive
ZAN,1,0.11,inactive
ZAN,1,2.07,inactive
ZAN,1,1.53,inactive
ZAN,1,0.98,inactive
ITM2B,1,0.19,inactive
ITM2B,1,1.6,inactive
ITM2B,1,0.78,inactive
ITM2B,1,1.24,inactive
CCL19,1,0.39,inactive
CCL19,1,0.33,inactive
CCL19,1,2.28,inactive
CCL19,1,1.63,inactive
HAO2,1,4.75,active
HAO2,1,0.45,inactive
HAO2,1,-0.79,inactive
HAO2,1,1.51,inactive
BLOC1S2,1,-0.9,inactive
BLOC1S2,1,-0.33,inactive
BLOC1S2,1,-0.22,inactive
BLOC1S2,1,0.19,inactive
CRBN,1,1.89,inactive
CRBN,1,1.53,inactive
CRBN,1,0.9,inactive
CRBN,1,0.74,inactive
NF1,1,-0.6,inactive
NF1,1,-0.89,inactive
NF1,1,-0.42,inactive
NF1,1,0.1,inactive
COCH,1,0.33,inactive
COCH,1,0.55,inactive
COCH,1,-1.09,inactive
COCH,1,-0.05,inactive
ZNF610,1,-0.6,inactive
ZNF610,1,-0.63,inactive
ZNF610,1,-0.79,inactive
ZNF610,1,-0.05,inactive
TMEM18,1,0.1,inactive
TMEM18,1,-1.1,inactive
TMEM18,1,4.11,active
TMEM18,1,2.62,inactive
OR1E2,1,-0.68,inactive
OR1E2,1,-0.64,inactive
OR1E2,1,-0.52,inactive
OR1E2,1,-0.55,inactive
CLRN1,1,-1.6,active
CLRN1,1,-0.9,inactive
CLRN1,1,-0.33,inactive
CLRN1,1,-1.15,inactive
RTL10,1,1.05,inactive
RTL10,1,-0.16,inactive
RTL10,1,-0.19,inactive
RTL10,1,-0.75,inactive
PGAP4,1,-0.76,inactive
PGAP4,1,0.08,inactive
PGAP4,1,-0.6,inactive
PGAP4,1,0.02,inactive
ZNF416,1,0.16,inactive
ZNF416,1,0.24,inactive
ZNF416,1,0.9,inactive
ZNF416,1,1.2,inactive
MSI2,1,-0.48,inactive
MSI2,1,0.53,inactive
MSI2,1,-0.63,inactive
MSI2,1,0.32,inactive
FAM193B,1,-0.46,inactive
FAM193B,1,0.84,inactive
FAM193B,1,-0.18,inactive
FAM193B,1,0.77,inactive
CT45A6,1,-0.06,inactive
CT45A6,1,1.18,inactive
CT45A6,1,0.59,inactive
CT45A6,1,1.76,inactive
MAPRE2,1,-0.09,inactive
MAPRE2,1,-0.22,inactive
MAPRE2,1,0.1,inactive
MAPRE2,1,-0.02,inactive

16 entries from above, sorted by “TNF reporter robust z-score”, descending.
gene,reagent,TNF reporter robust z-score,activity call
CT45A6,1,1.76,inactive
ZNF416,1,1.2,inactive
CT45A6,1,1.18,inactive
ZNF416,1,0.9,inactive
FAM193B,1,0.84,inactive
FAM193B,1,0.77,inactive
CT45A6,1,0.59,inactive
MSI2,1,0.53,inactive
MSI2,1,0.32,inactive
ZNF416,1,0.24,inactive
CT45A6,1,-0.06,inactive
MAPRE2,1,-0.09,inactive
FAM193B,1,-0.18,inactive
FAM193B,1,-0.46,inactive
MSI2,1,-0.48,inactive
MSI2,1,-0.63,inactive
